The target of this test is Cyclin Y-Flag (human) (UniProt Q8ND76). Briefly: co-IP; HeLa cells transfected with Cyclin Y-Flag, with or without GFP-tagged CDK; with or without 0.5 mM AICAR/50 µM A769662 for 1 h; lysate in Frackelton buffer, anti-FLAG M2 beads 2 h at 4 °C, three washes, immunoblot.

Sequences of proteins named here, by UniProt entry; tags and fusion partners are left off.
UniProt Q8ND76: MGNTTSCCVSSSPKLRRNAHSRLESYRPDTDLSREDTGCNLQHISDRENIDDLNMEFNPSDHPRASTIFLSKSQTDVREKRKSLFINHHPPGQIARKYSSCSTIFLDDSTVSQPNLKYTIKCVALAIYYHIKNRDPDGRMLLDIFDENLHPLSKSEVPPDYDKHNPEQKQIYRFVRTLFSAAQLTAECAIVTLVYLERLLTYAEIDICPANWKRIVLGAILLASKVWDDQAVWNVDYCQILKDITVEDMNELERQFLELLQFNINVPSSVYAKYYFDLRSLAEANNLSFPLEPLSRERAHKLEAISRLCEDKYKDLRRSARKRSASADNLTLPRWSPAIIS
UniProt Q96Q40: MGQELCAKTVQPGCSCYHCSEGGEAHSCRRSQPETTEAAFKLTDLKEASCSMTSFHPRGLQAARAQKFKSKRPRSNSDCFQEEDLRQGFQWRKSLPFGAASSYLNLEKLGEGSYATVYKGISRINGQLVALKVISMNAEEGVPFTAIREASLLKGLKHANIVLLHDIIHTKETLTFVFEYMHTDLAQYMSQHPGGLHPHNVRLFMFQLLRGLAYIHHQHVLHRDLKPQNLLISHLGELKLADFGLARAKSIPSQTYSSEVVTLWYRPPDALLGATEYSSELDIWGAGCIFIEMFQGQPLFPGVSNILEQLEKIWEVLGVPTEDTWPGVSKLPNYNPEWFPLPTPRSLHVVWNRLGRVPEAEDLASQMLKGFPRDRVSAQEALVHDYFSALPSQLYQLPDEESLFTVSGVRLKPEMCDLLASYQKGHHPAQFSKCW
UniProt O94921: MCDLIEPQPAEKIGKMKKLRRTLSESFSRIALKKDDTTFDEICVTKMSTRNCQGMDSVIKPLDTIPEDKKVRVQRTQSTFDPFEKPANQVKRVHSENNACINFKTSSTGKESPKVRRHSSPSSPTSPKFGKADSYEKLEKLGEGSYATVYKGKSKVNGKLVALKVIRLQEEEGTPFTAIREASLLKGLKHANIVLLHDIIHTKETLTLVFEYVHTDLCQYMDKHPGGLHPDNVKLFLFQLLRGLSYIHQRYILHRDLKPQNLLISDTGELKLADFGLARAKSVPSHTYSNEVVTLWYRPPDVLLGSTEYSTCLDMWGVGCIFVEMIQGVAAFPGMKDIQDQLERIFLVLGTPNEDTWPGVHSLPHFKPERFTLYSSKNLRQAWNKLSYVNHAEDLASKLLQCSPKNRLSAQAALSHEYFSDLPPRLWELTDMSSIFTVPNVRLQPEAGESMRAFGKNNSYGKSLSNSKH

Results are given in words; binding and its absence hold for the method and conditions named. In cells and extracts the contact can be indirect. Some results given as binding are weak or reduced against the parent protein; the word gives no strength.

“GFP-tagged CDK15 (from UniProt Q96Q40 1-435) (enzyme)”: the binding result is given as “binds”.

With “GFP-tagged CDK14 (from UniProt O94921 1-469) (enzyme)”, the binding result is given as “binds”.

The values above are taken from publication PMC7042329.
